Measured data: PubChem BioAssay AID1259283 (Sanger Institute, 2017)
Here is an unselected part of 794 reagents tested. 14 of them (1.8%) count as active. 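Calls reflect only viability loss without drug; drug synergy does not enter the call.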 Viability is capped at 1. Not given: the amount of reagent, the time to read-out.

Screen: 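Kinases needed for HT115 growth and partners for drug synergy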 (primary screen)
Cell system: HT115 colorectal cancer cells
Reagent: siRNA pool against human genes
Challenge: anchor drug given one day after siRNA: BYL719 at 1 µM, cetuximab at 5 µg/ml, trametinib at 10 nM, or DMSO vehicle alone
Measured: 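Per-drug synergy scores plus replicate-mean viability relative to non-targeting pool #2 wells, also expressed as a robust z-score based on control wells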
Direction: robust z-score, knock-down alone: higher = more viable cells after knock-down; viability, DMSO vs non-targeting control: higher = more viable cells; synergy score with BYL719 and synergy score with cetuximab and synergy score with trametinib: higher = stronger synergy with drug (synthetic lethal)
Rule for the call: 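a gene counts as essential when its robust z-score with knock-down alone is below -3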
Calls: active = essential (z below -3, no drug); inactive = no change without drug

The first 2 records, ahead of the listing:
no.	gene	PubChem SID	robust z-score, knock-down alone	viability, DMSO vs non-targeting control (fraction of control)	synergy score with BYL719	synergy score with cetuximab	synergy score with trametinib	Call
1	RPS6KA4	SID152147672	-1.32	0.805	-0.0604	0.056	0.286	inactive
2	PDIK1L	SID152147170	0.756	0.997	-0.0254	-0.0442	0.108	inactive

The list itself, from the start:
no.	gene	PubChem SID	robust z-score, knock-down alone	viability, DMSO vs non-targeting control (fraction of control)	synergy score with BYL719	synergy score with cetuximab	synergy score with trametinib	Call
1	RPS6KA4	SID152147672	-1.32	0.805	-0.0604	0.056	0.286	inactive
2	PDIK1L	SID152147170	0.756	0.997	-0.0254	-0.0442	0.108	inactive
3	TCF7L2	SID251759863	0.338	0.958	-0.0632	-0.0834	-0.191	inactive
4	BCKDK	SID135620909	0.789	1	-0.00736	-0.00128	-0.00657	inactive
5	MOS	SID56478732	-2.24	0.72	-0.0604	-0.109	-0.0459	inactive
6	PFKFB1	SID135621245	-0.49	0.882	0.124	0.0946	0.222	inactive
7	PHKB	SID134312707	0.789	1	0.0342	0.0509	-0.146	inactive
8	BCOR	SID135620845	0.33	0.958	0.116	0.112	0.081	inactive
9	PHKG1	SID152147540	0.259	0.951	0.0571	0.0604	0.202	inactive
10	EPHA7	SID152149990	-2.49	0.697	-0.0723	-0.0773	0.0523	inactive
11	KCNH8	SID134311656	-0.504	0.88	0.0315	0.165	0.321	inactive
12	GUCY2C	SID152148747	-0.318	0.898	-0.122	-0.0689	0.0172	inactive
13	BRD3	SID135620912	0.577	0.98	0.024	-0.000777	0.104	inactive
14	TWF2	SID56478547	0.789	1	0.0492	0.0958	0.123	inactive
15	STK31	SID135620977	0.284	0.953	-0.0158	0.0225	0.107	inactive
16	FCSK	SID152149608	-0.704	0.862	-0.061	0.0404	0.0102	inactive
17	PRKY	SID135620861	-0.252	0.904	-0.0836	0.0345	0.0405	inactive
18	RIOK2	SID134310711	0.789	1	0.0589	-0.00185	-0.0669	inactive
19	BMPR1B	SID56478926	0.598	0.982	0.069	0.125	0.0476	inactive
20	PFKFB3	SID135621247	0.789	1	0.124	0.184	0.183	inactive
21	TRIO	SID56478974	0.672	0.989	0.0893	0.0592	0.0696	inactive
22	AKAP9	SID134321301	0.789	1	0.0851	0.15	0.144	inactive
23	DBF4	SID135620786	0.789	1	-0.0157	-0.0435	-0.0262	inactive
24	XYLB	SID152153831	0.2	0.946	0.157	0.0378	0.112	inactive
25	INSR	SID152149459	0.789	1	-0.00843	-0.034	-0.0411	inactive
26	ITSN1	SID135621555	0.0012	0.927	0.127	0.0244	-0.0351	inactive
27	TAOK3	SID152152167	-0.399	0.89	-0.115	0.00607	0.0332	inactive
28	SBK1	SID152154198	0.789	1	-0.0224	-0.00584	0.091	inactive
29	HIPK2	SID56478619	0.293	0.954	-0.0141	-0.0498	0.0676	inactive
30	PRKCA	SID56478672	0.409	0.965	0.102	0.26	0.366	inactive
31	PRKG1	SID152152064	0.74	0.995	0.0384	-0.0478	-0.131	inactive
32	NEK2	SID56478772	0.622	0.985	-0.000545	0.164	0.116	inactive
33	DYRK4	SID56478859	-1.2	0.816	-0.158	0.0876	0.0654	inactive
34	LIMK1	SID135621436	0.645	0.987	-0.00423	-0.00134	0.183	inactive
35	MYO3A	SID152148134	-1.58	0.781	-0.041	-0.079	-0.121	inactive
36	VRK3	SID135620981	0.789	1	-0.0224	-0.0435	-0.0196	inactive
37	SRMS	SID56479047	0.136	0.94	0.13	0.0872	0.0321	inactive
38	RNASEL	SID56478962	0.789	1	0.0217	0.0116	-0.0108	inactive
39	ERBB4	SID135620618	-0.584	0.873	-0.00893	-0.0422	0.122	inactive
40	PI4K2B	SID56479132	-0.532	0.878	-0.00409	0.0902	0.0866	inactive
41	MSR1	SID152150198	0.789	1	-0.00958	0.09	0.049	inactive
42	CAMK2B	SID135620913	0.789	1	0.0778	-0.0273	0.127	inactive
43	COMMD3	SID152155344	0.0442	0.931	0.00933	-0.0686	0.038	inactive
44	PIM2	SID56479034	0.789	1	0.0163	0.144	0.0874	inactive
45	FLT1	SID152149290	0.789	1	0.00734	0.06	-0.015	inactive
46	GALK2	SID56479099	-1.66	0.773	-0.192	-0.111	0.0921	inactive
47	CDC42BPG	SID135621430	0.789	1	-0.0101	-0.0109	-0.0255	inactive
48	FASTK	SID56479004	-0.441	0.886	-0.0597	0.0154	-0.0588	inactive
49	FRK	SID56478519	0.789	1	-0.0122	0.113	0.0432	inactive
50	PSTK	SID134320501	-0.434	0.887	-0.035	-0.0162	-0.00841	inactive
